Measurements as given in the supplement of paper PMC10849652.
The other results are listed elsewhere or left out.

The chains behind the UniProt entries cited, without tags or fusion partners. Where a name states a change or a piece, a line headed by the entry shows the natural chain unless it says otherwise.
UniProt Q8TCF1: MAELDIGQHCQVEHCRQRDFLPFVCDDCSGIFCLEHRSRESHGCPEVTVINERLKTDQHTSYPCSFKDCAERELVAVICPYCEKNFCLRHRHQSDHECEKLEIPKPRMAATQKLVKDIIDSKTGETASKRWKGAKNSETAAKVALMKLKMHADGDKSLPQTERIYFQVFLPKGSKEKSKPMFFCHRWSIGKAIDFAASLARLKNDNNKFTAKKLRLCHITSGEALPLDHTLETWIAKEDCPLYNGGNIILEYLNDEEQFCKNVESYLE
UniProt Q9UIJ5: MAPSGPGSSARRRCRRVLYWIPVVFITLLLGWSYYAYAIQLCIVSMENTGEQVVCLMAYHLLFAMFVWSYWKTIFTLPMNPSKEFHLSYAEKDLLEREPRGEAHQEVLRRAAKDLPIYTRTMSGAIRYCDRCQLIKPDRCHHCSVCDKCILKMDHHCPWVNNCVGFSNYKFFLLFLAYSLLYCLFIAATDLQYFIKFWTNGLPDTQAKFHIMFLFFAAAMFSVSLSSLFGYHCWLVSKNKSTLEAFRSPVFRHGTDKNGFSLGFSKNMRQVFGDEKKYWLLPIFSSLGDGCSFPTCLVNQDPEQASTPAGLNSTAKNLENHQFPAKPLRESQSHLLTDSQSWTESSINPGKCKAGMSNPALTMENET
UniProt Q9BQ24: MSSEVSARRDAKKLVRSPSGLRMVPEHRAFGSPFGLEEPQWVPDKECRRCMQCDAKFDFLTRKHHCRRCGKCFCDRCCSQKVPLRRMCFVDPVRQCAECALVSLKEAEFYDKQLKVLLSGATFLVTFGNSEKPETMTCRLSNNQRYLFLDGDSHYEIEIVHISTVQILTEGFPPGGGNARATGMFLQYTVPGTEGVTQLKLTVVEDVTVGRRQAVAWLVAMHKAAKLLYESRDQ
UniProt Q8TBF4: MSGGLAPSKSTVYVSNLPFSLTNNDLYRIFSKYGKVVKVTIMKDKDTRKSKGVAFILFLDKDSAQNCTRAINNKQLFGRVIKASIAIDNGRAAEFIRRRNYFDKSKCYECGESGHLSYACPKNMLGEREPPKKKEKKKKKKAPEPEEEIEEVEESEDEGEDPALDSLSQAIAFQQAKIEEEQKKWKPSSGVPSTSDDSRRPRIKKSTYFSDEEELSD
UniProt Q9NTW7: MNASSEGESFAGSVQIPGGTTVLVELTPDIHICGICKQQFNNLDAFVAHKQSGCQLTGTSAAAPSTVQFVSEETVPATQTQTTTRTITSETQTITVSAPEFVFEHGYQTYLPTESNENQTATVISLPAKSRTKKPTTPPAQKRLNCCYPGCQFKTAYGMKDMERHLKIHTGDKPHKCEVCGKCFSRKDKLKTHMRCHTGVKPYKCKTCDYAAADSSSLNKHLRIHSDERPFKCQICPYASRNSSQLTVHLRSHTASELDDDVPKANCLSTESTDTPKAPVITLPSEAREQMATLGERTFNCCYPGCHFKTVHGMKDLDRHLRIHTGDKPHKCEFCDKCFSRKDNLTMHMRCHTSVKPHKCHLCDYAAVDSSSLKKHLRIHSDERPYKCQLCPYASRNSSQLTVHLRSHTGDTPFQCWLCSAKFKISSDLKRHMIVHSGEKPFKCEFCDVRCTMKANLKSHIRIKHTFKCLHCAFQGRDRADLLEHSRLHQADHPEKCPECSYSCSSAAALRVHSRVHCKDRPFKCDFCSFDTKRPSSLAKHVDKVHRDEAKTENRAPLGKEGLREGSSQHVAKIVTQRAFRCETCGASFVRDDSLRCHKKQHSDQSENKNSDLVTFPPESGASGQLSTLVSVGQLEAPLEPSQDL
UniProt Q9NPG8: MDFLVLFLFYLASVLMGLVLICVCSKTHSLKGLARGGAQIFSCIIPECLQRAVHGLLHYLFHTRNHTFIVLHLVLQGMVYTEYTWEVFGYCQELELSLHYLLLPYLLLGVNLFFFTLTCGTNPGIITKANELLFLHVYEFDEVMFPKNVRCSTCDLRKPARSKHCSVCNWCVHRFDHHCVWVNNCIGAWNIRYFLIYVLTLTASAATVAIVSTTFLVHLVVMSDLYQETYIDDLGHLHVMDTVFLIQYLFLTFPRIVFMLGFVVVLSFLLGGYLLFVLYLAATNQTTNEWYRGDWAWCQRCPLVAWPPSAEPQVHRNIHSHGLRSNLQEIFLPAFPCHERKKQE
UniProt O95625: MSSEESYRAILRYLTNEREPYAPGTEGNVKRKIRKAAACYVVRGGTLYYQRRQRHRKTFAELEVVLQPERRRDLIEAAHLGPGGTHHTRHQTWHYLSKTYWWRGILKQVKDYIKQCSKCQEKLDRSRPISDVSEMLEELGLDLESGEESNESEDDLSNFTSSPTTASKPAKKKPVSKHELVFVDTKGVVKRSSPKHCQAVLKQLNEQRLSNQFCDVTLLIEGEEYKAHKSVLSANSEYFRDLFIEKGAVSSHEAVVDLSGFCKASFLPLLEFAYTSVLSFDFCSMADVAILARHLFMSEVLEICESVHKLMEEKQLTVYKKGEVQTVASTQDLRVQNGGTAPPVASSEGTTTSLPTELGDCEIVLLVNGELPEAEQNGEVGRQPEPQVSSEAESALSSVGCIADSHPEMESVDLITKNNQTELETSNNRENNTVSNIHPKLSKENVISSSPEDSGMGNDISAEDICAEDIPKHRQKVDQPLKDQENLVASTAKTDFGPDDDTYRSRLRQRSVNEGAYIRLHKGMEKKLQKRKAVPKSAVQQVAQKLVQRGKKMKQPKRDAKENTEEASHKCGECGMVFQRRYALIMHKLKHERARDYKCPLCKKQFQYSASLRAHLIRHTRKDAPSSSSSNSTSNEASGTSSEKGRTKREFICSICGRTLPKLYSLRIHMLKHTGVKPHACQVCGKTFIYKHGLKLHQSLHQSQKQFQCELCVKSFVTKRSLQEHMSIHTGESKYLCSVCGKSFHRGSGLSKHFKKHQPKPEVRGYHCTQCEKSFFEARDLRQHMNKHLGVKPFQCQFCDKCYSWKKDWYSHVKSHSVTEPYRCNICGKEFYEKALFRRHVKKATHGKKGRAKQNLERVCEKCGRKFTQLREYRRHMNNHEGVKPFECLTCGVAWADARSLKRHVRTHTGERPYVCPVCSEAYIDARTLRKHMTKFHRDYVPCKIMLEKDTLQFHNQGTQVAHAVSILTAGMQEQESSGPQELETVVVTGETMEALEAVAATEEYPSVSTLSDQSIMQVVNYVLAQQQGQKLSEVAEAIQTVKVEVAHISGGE
UniProt Q9Y397: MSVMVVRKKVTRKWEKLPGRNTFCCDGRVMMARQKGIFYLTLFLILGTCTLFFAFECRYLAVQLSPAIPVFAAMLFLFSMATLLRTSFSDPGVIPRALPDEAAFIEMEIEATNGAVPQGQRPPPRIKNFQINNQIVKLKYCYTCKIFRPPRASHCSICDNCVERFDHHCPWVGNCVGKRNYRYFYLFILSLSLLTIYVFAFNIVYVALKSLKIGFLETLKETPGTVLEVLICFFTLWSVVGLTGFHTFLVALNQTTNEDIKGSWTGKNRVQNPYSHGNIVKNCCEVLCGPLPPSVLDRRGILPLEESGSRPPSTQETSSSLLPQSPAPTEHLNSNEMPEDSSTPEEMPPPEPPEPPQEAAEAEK
UniProt Q5T4F4: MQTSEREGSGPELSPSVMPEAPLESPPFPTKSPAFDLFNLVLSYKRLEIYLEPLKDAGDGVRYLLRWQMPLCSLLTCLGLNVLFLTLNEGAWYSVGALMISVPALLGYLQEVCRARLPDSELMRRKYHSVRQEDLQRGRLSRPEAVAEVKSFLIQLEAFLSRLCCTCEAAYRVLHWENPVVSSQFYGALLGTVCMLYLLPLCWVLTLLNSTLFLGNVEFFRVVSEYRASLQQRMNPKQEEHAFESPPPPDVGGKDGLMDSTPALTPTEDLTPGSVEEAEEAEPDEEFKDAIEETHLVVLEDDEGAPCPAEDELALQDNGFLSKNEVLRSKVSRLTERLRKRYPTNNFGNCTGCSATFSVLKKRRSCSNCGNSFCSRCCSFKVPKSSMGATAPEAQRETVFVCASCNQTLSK
UniProt Q9BWQ6: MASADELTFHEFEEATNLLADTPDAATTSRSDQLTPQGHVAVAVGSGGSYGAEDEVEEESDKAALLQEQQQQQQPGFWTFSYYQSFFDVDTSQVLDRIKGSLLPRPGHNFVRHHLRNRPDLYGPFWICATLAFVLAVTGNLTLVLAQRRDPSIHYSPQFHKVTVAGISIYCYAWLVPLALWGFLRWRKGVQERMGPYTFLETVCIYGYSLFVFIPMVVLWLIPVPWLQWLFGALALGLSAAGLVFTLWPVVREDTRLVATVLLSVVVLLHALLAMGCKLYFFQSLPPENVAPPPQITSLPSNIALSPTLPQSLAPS
UniProt Q5W0Z9: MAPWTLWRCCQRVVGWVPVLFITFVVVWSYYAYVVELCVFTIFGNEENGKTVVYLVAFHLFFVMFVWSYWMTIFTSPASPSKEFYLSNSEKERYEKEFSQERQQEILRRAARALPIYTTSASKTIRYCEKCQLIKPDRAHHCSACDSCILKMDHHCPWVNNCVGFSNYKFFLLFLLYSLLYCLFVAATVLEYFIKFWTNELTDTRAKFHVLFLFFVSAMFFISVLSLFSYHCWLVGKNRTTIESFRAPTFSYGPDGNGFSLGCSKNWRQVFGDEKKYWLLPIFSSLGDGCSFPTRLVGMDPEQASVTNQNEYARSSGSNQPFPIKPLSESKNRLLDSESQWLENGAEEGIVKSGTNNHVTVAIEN
UniProt C9J5V9: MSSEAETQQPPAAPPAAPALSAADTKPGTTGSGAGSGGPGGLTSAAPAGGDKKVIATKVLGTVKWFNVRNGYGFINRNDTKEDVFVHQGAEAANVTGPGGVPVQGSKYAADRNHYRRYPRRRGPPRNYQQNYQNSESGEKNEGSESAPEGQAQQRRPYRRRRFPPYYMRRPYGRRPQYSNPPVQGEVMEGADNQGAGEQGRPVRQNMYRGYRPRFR
UniProt Q9HBF4: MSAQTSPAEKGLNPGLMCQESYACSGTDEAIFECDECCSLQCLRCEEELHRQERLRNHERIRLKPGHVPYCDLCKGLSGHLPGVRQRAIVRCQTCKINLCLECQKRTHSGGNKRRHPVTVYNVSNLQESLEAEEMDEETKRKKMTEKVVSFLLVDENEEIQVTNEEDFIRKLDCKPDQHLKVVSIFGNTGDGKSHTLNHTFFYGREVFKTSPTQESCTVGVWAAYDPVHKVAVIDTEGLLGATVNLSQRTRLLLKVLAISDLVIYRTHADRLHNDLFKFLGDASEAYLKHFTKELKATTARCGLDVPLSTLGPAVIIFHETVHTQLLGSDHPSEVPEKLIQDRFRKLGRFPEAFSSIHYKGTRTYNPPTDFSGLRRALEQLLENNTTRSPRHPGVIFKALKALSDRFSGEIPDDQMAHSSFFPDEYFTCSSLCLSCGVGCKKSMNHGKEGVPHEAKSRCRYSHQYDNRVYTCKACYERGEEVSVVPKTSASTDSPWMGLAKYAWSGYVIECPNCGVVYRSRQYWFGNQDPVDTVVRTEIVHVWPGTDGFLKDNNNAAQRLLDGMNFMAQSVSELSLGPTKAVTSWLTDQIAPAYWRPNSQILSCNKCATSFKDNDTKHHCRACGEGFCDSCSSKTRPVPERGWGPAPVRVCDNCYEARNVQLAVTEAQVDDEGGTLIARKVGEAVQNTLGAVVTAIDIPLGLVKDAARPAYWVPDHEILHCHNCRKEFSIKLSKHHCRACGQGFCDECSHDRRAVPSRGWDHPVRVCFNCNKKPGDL
UniProt O43829: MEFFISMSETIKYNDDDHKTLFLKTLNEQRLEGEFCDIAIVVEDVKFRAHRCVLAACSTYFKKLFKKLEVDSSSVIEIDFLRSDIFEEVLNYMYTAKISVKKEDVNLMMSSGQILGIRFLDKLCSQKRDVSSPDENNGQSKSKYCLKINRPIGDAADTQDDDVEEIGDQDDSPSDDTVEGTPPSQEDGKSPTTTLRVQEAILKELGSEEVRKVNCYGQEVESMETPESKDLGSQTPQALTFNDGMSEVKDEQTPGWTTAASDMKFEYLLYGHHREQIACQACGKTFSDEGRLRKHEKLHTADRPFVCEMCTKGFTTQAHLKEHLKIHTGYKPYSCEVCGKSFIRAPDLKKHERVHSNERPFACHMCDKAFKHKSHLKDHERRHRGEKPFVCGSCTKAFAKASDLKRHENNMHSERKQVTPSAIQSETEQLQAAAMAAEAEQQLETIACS
UniProt Q8IZN3: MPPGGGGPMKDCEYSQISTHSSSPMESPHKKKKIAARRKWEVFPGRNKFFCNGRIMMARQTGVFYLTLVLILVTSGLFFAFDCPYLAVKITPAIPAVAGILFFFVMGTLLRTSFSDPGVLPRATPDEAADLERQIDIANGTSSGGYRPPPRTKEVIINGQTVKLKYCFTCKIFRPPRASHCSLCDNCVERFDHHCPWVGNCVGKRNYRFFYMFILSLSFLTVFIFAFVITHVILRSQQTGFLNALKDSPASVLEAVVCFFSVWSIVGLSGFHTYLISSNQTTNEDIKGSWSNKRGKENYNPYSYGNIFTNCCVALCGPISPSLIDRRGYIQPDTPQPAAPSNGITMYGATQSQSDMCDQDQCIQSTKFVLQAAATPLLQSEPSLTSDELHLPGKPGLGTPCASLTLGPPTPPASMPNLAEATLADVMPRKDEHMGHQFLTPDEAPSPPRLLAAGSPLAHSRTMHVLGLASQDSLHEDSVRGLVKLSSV

What was measured:
Experiment in all cases: log2 fold change, soluble protein after heating vs DMSO (PISA); higher = thermal stabilisation; K562 lysate, 10 uM; active = over 0.2 and 3.5 SD of the protein, either way, in both replicates (recomputed)
alvocidib = compound: CN1CC[C@H](c2c(O)cc(O)c3c(=O)cc(-c4ccccc4Cl)oc23)[C@H](O)C1 [alvocidib]
Method in brief: (§1)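 Dounce homogenisation of K562 pellets in PBS pH 7.4 with 1 mM MgCl2 produced a crude extract, used at 1 mg/mL protein. Exposure to 10 μM compound lasted 30 min, and aliquots were then heated for 3 min across 48°C-58°C, pooled and brought to 0.5% NP-40 at 4°C. The supernatant after 21,000xg for 90 min was quantified by TMTpro 16plex LC-MS/MS with channel sums equalised. Duplicate values are given as log-two fold change in thermal stability relative to solvent controls.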

Tubastatin A = compound: CN1CCc2c(c3ccccc3n2Cc2ccc(C(=O)NO)cc2)C1 [Tubastatin A]
Method in brief: as §1

[1] = compound: CNc1nc(-c2ccc3c(N)n[nH]c3c2)cc(N2C[C@@H](C(=O)NC3CCCCC3)CC[C@H]2C)n1
Method in brief: as §1

encorafenib = compound: COC(=O)N[C@@H](C)CNc1nccc(-c2cn(C(C)C)nc2-c2cc(Cl)cc(NS(C)(=O)=O)c2F)n1 [encorafenib]
Method in brief: as §1

[2] = compound: COC(=O)[C@H](CCSC)NC(=O)C1=C(C=C(C=C1)NC[C@H](CS)N)C2=CC=CC=C2
Method in brief: as §1

pictilisib = compound: CS(=O)(=O)N1CCN(Cc2cc3nc(-c4cccc5[nH]ncc45)nc(N4CCOCC4)c3s2)CC1 [pictilisib]
Method in brief: as §1

crizotinib = compound: C[C@@H](Oc1cc(-c2cnn(C3CCNCC3)c2)cnc1N)c1c(Cl)ccc(F)c1Cl [crizotinib]
Method in brief: as §1

[3] = compound: C[C@H](C1=CC=C(C=C1)C(=O)NC2=C3C=CNC3=NC=C2)N
Method in brief: as §1

duvelisib = compound: C[C@H](Nc1ncnc2nc[nH]c12)c1cc2cccc(Cl)c2c(=O)n1-c1ccccc1 [duvelisib]
Method in brief: as §1

gandotinib = compound: Cc1cc(Nc2cc(CN3CCOCC3)c3nc(C)c(Cc4ccc(Cl)cc4F)n3n2)n[nH]1 [gandotinib]
Method in brief: as §1

tozasertib = compound: Cc1cc(Nc2cc(N3CCN(C)CC3)nc(Sc3ccc(NC(=O)C4CC4)cc3)n2)n[nH]1 [tozasertib]
Method in brief: as §1

doramapimod = compound: Cc1ccc(-n2nc(C(C)(C)C)cc2NC(=O)Nc2ccc(OCCN3CCOCC3)c3ccccc23)cc1 [doramapimod]
Method in brief: as §1

bafetinib = compound: Cc1ccc(NC(=O)c2ccc(CN3CC[C@H](N(C)C)C3)c(C(F)(F)F)c2)cc1Nc1nccc(-c2cncnc2)n1 [bafetinib]
Method in brief: as §1

[4] = compound: Cc1cccc(CC(=O)N2CCc3c2ccc(-c2cn(C)c4ncnc(N)c24)c3F)n1
Method in brief: as §1

[5] = compound: CNC(=O)C1=CC=CC=C1NC2=NC(=NC=C2Cl)NC3=C(C=C(C=C3)N4CCOCC4)OC
Method in brief: as §1

[6] = compound: COc1cc2nc(-c3cc(F)ccc3O)nc(N[C@@H]3CNC[C@H]3C(C)(C)O)c2cc1OC
Method in brief: as §1

lapatinib = compound: CS(=O)(=O)CCNCc1ccc(-c2ccc3ncnc(Nc4ccc(OCc5cccc(F)c5)c(Cl)c4)c3c2)o1 [lapatinib]
Method in brief: as §1

defactinib = compound: CNC(=O)c1ccc(Nc2ncc(C(F)(F)F)c(NCc3nccnc3N(C)S(C)(=O)=O)n2)cc1 [defactinib]
Method in brief: as §1

alisertib = compound: COc1cc(Nc2ncc3c(n2)-c2ccc(Cl)cc2C(c2c(F)cccc2OC)=NC3)ccc1C(=O)O [alisertib]
Method in brief: as §1

gefitinib = compound: COc1cc2ncnc(Nc3ccc(F)c(Cl)c3)c2cc1OCCCN1CCOCC1 [gefitinib]
Method in brief: as §1

Measured: log2 fold change

ZFAND1 (UniProt Q8TCF1)
inactive: alvocidib 0.241 | Tubastatin A -0.025 | [1] -0.035 | encorafenib -0.115 | [2] 0.091 | pictilisib 0.028 | crizotinib 0.036 | [3] 0.412 | duvelisib -0.095 | gandotinib -0.205 | tozasertib -0.072 | doramapimod 0.026 | bafetinib -0.15 | [4] -0.316

ZDHHC2 (UniProt Q9UIJ5)
inactive: alvocidib -0.044 | Tubastatin A -0.087 | [5] -0.044 | encorafenib 0.084 | [2] -0.375 | [6] -0.052 | lapatinib 0.048 | crizotinib -0.236 | [3] -0.009 | gandotinib 0 | tozasertib 0.145 | doramapimod -0.001 | [4] 0.071

ZFYVE21 isoform 2 (UniProt Q9BQ24)
inactive: alvocidib -0.021 | Tubastatin A -0.141 | defactinib 0.023 | [1] 0.099 | encorafenib 0.049 | [2] -0.081 | alisertib -0.034 | [6] 0.083 | gefitinib 0.014 | lapatinib 0 | pictilisib -0.081 | crizotinib -0.04 | [3] -0.057 | duvelisib -0.077 | gandotinib -0.058 | tozasertib 0.11 | doramapimod -0.035 | bafetinib 0.064 | [4] 0.047

ZCRB1 (UniProt Q8TBF4)
inactive: alvocidib 0.001 | Tubastatin A -0.013 | [5] 0.082 | [1] 0.056 | alisertib 0.021 | [6] 0.047 | gefitinib -0.073 | lapatinib -0.014 | crizotinib 0.075 | [3] 0.003 | duvelisib 0.064 | gandotinib 0.099 | doramapimod -0.135 | [4] -0.056

ZDHHC8 isoform 3 (UniProt Q9ULC8)
inactive: alvocidib -0.101 | [3] -0.2 | gandotinib 0.27 | [4] 0.209

ZFP64 isoform 5 (UniProt Q9NTW7)
inactive: alvocidib -0.051 | Tubastatin A -0.133 | encorafenib -0.019 | [2] -0.028 | [6] -0.083 | lapatinib -0.242 | pictilisib 0.056 | crizotinib 0.089 | [3] -0.346 | gandotinib 0.01 | tozasertib 0.212 | doramapimod 0.061 | bafetinib 0.06 | [4] 0.065

ZDHHC4 (UniProt Q9NPG8)
inactive: alvocidib 0.159 | Tubastatin A 0.061 | [5] -0.153 | [1] -0.017 | alisertib -0.25 | [6] 0.093 | gefitinib -0.203 | lapatinib 0.201 | pictilisib 0.045 | crizotinib 0.036 | [3] -0.081 | duvelisib -0.131 | gandotinib -0.053 | doramapimod -0.032 | bafetinib 0.074 | [4] -0.17

ZBTB11 (UniProt O95625)
inactive: alvocidib -0.03 | [5] 0.152 | defactinib -0.067 | alisertib 0.08 | [6] -0.172 | gefitinib -0.05 | lapatinib 0.211 | crizotinib -0.021 | [3] -0.074 | gandotinib 0.05 | doramapimod -0.087 | [4] 0.054

ZDHHC9 (UniProt Q9Y397)
inactive: alvocidib -0.092 | Tubastatin A 0.11 | [5] 0.083 | crizotinib 0.087 | [3] -0.113 | gandotinib 0.14 | doramapimod 0.099 | [4] 0.04

ZC3H3 (UniProt Q8IXZ2)
inactive: alvocidib 0.069 | [6] 0.046 | lapatinib -0.035 | [3] -0.039 | gandotinib 0.018 | [4] 0.055

ZFYVE27 isoform 2 (UniProt Q5T4F4)
inactive: Tubastatin A 0.114 | [5] 0.096 | defactinib 0.011 | [1] -0.019 | encorafenib 0.061 | [2] -0.218 | [6] -0.029 | lapatinib 0.005 | pictilisib -0.028 | crizotinib -0.075 | duvelisib 0.047 | tozasertib 0.027 | doramapimod -0.022 | bafetinib -0.047

YIPF2 (UniProt Q9BWQ6)
inactive: alvocidib -0.32 | Tubastatin A 0.224 | [5] 0.041 | crizotinib 0.076 | [3] 0.18 | gandotinib 0.063 | doramapimod -0.037 | [4] 0.021

ZDHHC20 (UniProt Q5W0Z9)
inactive: alvocidib 0.007 | defactinib 0.019 | [1] -0.019 | encorafenib 0.043 | [2] -0.002 | [6] -0.04 | lapatinib 0.016 | pictilisib -0.025 | crizotinib -0.156 | [3] -0.001 | duvelisib 0.029 | gandotinib 0.027 | tozasertib 0.007 | doramapimod -0.072 | bafetinib -0.036 | [4] 0

YBX1 (UniProt C9J5V9)
inactive: alvocidib -0.255 | crizotinib -0.114 | [3] -0.081 | gandotinib 0.023 | doramapimod 0.097 | [4] 0.074

ZFYVE1 (UniProt Q9HBF4)
inactive: alvocidib 0.22 | Tubastatin A 0.055 | [5] 0.084 | [1] 0.019 | alisertib 0.247 | [6] 0.018 | gefitinib 0.151 | lapatinib -0.008 | pictilisib 0.063 | crizotinib -0.202 | [3] -0.017 | duvelisib -0.015 | gandotinib -0.04 | doramapimod 0.206 | bafetinib -0.208 | [4] 0.219

ZBTB1 (UniProt Q9Y2K1)
inactive: alvocidib -0.133 | Tubastatin A -0.035 | [5] 0.081 | encorafenib 0.111 | [2] 0.094 | [6] 0.237 | lapatinib -0.083 | pictilisib -0.096 | [3] -0.071 | gandotinib 0.087 | tozasertib -0.171 | bafetinib -0.29 | [4] -0.182

XRCC2 (UniProt O43543)
inactive: alvocidib 0.071 | [1] 0.084 | alisertib 0.111 | gefitinib -0.31 | pictilisib -0.072 | crizotinib 0.044 | [3] -0.001 | duvelisib 0.14 | gandotinib -0.171 | doramapimod 0.007 | bafetinib 0.045 | [4] 0.03

4 consecutive records from above, quoted:
ZDHHC20 (UniProt Q5W0Z9)
inactive: alvocidib 0.007 | defactinib 0.019 | [1] -0.019 | encorafenib 0.043 | [2] -0.002 | [6] -0.04 | lapatinib 0.016 | pictilisib -0.025 | crizotinib -0.156 | [3] -0.001 | duvelisib 0.029 | gandotinib 0.027 | tozasertib 0.007 | doramapimod -0.072 | bafetinib -0.036 | [4] 0

YBX1 (UniProt C9J5V9)
inactive: alvocidib -0.255 | crizotinib -0.114 | [3] -0.081 | gandotinib 0.023 | doramapimod 0.097 | [4] 0.074

ZFYVE1 (UniProt Q9HBF4)
inactive: alvocidib 0.22 | Tubastatin A 0.055 | [5] 0.084 | [1] 0.019 | alisertib 0.247 | [6] 0.018 | gefitinib 0.151 | lapatinib -0.008 | pictilisib 0.063 | crizotinib -0.202 | [3] -0.017 | duvelisib -0.015 | gandotinib -0.04 | doramapimod 0.206 | bafetinib -0.208 | [4] 0.219

ZBTB1 (UniProt Q9Y2K1)
inactive: alvocidib -0.133 | Tubastatin A -0.035 | [5] 0.081 | encorafenib 0.111 | [2] 0.094 | [6] 0.237 | lapatinib -0.083 | pictilisib -0.096 | [3] -0.071 | gandotinib 0.087 | tozasertib -0.171 | bafetinib -0.29 | [4] -0.182

Next results

YWHAZ (UniProt E7ESK7)
inactive: alvocidib -0.013 | [5] -0.011 | defactinib -0.035 | [1] -0.086 | encorafenib 0.15 | [2] -0.003 | [6] 0.005 | lapatinib 0.03 | pictilisib -0.092 | crizotinib -0.167 | [3] -0.019 | duvelisib 0.067 | gandotinib 0.055 | tozasertib 0.129 | doramapimod 0.139 | bafetinib 0.169 | [4] -0.017

ZDHHC13 (UniProt Q8IUH4)
inactive: alvocidib 0 | [5] 0.014 | defactinib 0.03 | [1] 0.122 | pictilisib 0.041 | [3] 0.038 | duvelisib -0.12 | gandotinib 0.09 | bafetinib -0.074 | [4] 0.01

ZBTB14 (UniProt O43829)
inactive: alvocidib -0.027 | Tubastatin A 0.028 | [5] -0.065 | [1] -0.007 | alisertib -0.069 | [6] -0.018 | gefitinib 0.136 | lapatinib -0.021 | pictilisib -0.023 | crizotinib 0.081 | [3] -0.132 | duvelisib 0.046 | gandotinib 0.076 | doramapimod -0.155 | bafetinib -0.127 | [4] -0.017

ZDHHC14 (UniProt Q8IZN3)
inactive: alvocidib 0.066 | Tubastatin A 0.067 | defactinib -0.025 | [1] 0.018 | encorafenib -0.018 | [2] 0.019 | alisertib 0.013 | [6] 0.026 | gefitinib -0.074 | lapatinib -0.065 | crizotinib 0.074 | [3] -0.221 | duvelisib -0.002 | gandotinib -0.321 | tozasertib 0.048 | doramapimod -0.029 | [4] -0.021

YTHDC1 (UniProt Q96MU7)
inactive: alvocidib -0.14 | defactinib 0.271 | [1] -0.644 | encorafenib -0.167 | [2] -0.062 | alisertib -0.215 | [6] 0.031 | gefitinib 0.114 | lapatinib -0.084 | pictilisib 0.061 | crizotinib 0.005 | [3] 0.048 | duvelisib 0.068 | gandotinib 0.136 | tozasertib 0.19 | doramapimod -0.043 | bafetinib -0.012 | [4] 0.148
